# The list shows a part of the results. Single values are uncertain, as repeats are few or missing.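 Cells were imaged in 1,536-well plates, and nuclei stained with an antibody against cleaved PARP were counted against all DNA-stained nuclei to give the apoptosis fraction. Screening doses were chosen to leave most cells alive, and resting and induced cleaved-PARP levels differ strongly between cell lines.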
# Tested on: COLO800
# Assay: cleaved PARP positive nuclei fraction relative to DMSO control; melanoma cells; higher = more apoptosis
# Details: library dose: low library concentration; 72 h
row,Structure (SMILES),cleaved PARP positive nuclei fraction
1,"CC(C)C[C@H](NC(=O)[C@H](Cc1ccccc1)NC(=O)c1cnccn1)B(O)O [Bortezomib] + Cn1c(Nc2ccc(C(F)(F)F)cc2)nc2cc(Oc3ccnc(-c4ncc(C(F)(F)F)[nH]4)c3)ccc21 [CHIR265] (first compound 0.001 µM, partner dose 0.08 µM)",116%
2,"Cn1c(=O)n(-c2ccc(C(C)(C)C#N)cc2)c2c3cc(-c4cnc5ccccc5c4)ccc3ncc21 + C[C@]1(c2nc3c(C(N)=O)cccc3[nH]2)CCCN1 [Veliparib] (first compound 0.004 µM, partner dose 1.4 µM)",134%
3,"CS(=O)(=O)CCNCc1ccc(-c2ccc3ncnc(Nc4ccc(OCc5cccc(F)c5)c(Cl)c4)c3c2)o1 [lapatinib] + COCC[n+]1c2c(n(Cc3cnccn3)c1C)C(=O)c1ccccc1C2=O [YM155] (first compound 0.8 µM, partner dose 0.0004 µM)",183%
4,"CCCS(=O)(=O)Nc1ccc(F)c(C(=O)c2c[nH]c3ncc(Cl)cc23)c1F + Nc1nc(F)nc2c1ncn2[C@@H]1O[C@H](CO)[C@@H](O)[C@@H]1O [fludarabine] (first compound 0.08 µM, partner dose 0.2 µM)",89.8%
5,"Cc1cc(Nc2cc(N3CCN(C)CC3)nc(/C=C/c3ccccc3)n2)n[nH]1 + CO[C@H]1C[C@@H]2CC[C@@H](C)[C@@](O)(O2)C(=O)C(=O)N2CCCC[C@H]2C(=O)O[C@H]([C@H](C)C[C@@H]2CC[C@@H](OCCO)[C@H](OC)C2)CC(=O)[C@H](C)/C=C(\C)[C@@H](O)[C@@H](OC)C(=O)[C@H](C)C[C@H](C)/C=C/C=C/C=C/1C [everolimus] (first compound 0.04 µM, partner dose 0.02 µM)",77.5%
6,"CCCS(=O)(=O)Nc1ccc(F)c(C(=O)c2c[nH]c3ncc(Cl)cc23)c1F + Nc1ncn([C@H]2C[C@H](O)[C@@H](CO)O2)c(=O)n1 [decitabine] (first compound 0.08 µM, partner dose 0.1 µM)",113%

# Tested on: COLO829
# Assay: as above
# Details: library dose: low library concentration; 72 h
row,Structure (SMILES),cleaved PARP positive nuclei fraction
1,"Cn1c(=O)n(-c2ccc(C(C)(C)C#N)cc2)c2c3cc(-c4cnc5ccccc5c4)ccc3ncc21 + CN1CCN(c2ccc3nc(-c4c(N)c5c(F)cccc5[nH]c4=O)[nH]c3c2)CC1 [Dovitinib] (first compound 0.004 µM, partner dose 0.1 µM)",87.5%
2,"O=C(O)c1ccc2c(c1)nc(Nc1cccc(Cl)c1)c1ccncc12 + COc1ccc(Cl)c(Nc2nc3ccccc3nc2NS(=O)(=O)c2cccc(NC(=O)C(C)(C)N)c2)c1 [XL147] (first compound 0.4 µM, partner dose 0.8 µM)",113%
3,"CNC(=O)c1cc(Oc2ccc(NC(=O)Nc3ccc(Cl)c(C(F)(F)F)c3)cc2)ccn1 [sorafenib] + OCc1c[nH]c2ccccc12 [Indole-3-carbinol] (first compound 0.4 µM, partner dose 0.8 µM)",109%
4,"CO[C@H]1C[C@@H]2CC[C@@H](C)[C@@](O)(O2)C(=O)C(=O)N2CCCC[C@H]2C(=O)O[C@H]([C@H](C)C[C@@H]2CC[C@@H](OCCO)[C@H](OC)C2)CC(=O)[C@H](C)/C=C(\C)[C@@H](O)[C@@H](OC)C(=O)[C@H](C)C[C@H](C)/C=C/C=C/C=C/1C [everolimus] + O=C(O)c1ccc2c(c1)nc(Nc1cccc(Cl)c1)c1ccncc12 [CX4945] (first compound 0.02 µM, partner dose 0.4 µM)",164%
5,"Cn1c(=O)n(-c2ccc(C(C)(C)C#N)cc2)c2c3cc(-c4cnc5ccccc5c4)ccc3ncc21 + O=C(O)c1ccc2c(c1)nc(Nc1cccc(Cl)c1)c1ccncc12 [CX4945] (first compound 0.004 µM, partner dose 0.4 µM)",56.5%
6,"CNC(=O)c1cc(Oc2ccc(NC(=O)Nc3ccc(Cl)c(C(F)(F)F)c3)cc2)ccn1 [sorafenib] + Cn1c(Nc2ccc(C(F)(F)F)cc2)nc2cc(Oc3ccnc(-c4ncc(C(F)(F)F)[nH]4)c3)ccc21 [CHIR265] (first compound 0.4 µM, partner dose 0.08 µM)",84.3%
7,"Cc1cc(Nc2cc(N3CCN(C)CC3)nc(/C=C/c3ccccc3)n2)n[nH]1 + NC1(c2ccc(-c3nc4ccn5c(=O)[nH]nc5c4cc3-c3ccccc3)cc2)CCC1 [MK2206] (first compound 0.04 µM, partner dose 0.4 µM)",146%
8,"CC(C)C[C@H](NC(=O)[C@H](Cc1ccccc1)NC(=O)c1cnccn1)B(O)O [Bortezomib] + CS(=O)(=O)CCNCc1ccc(-c2ccc3ncnc(Nc4ccc(OCc5cccc(F)c5)c(Cl)c4)c3c2)o1 [lapatinib] (first compound 0.001 µM, partner dose 0.8 µM)",196%
9,"CO[C@H]1C[C@@H]2CC[C@@H](C)[C@@](O)(O2)C(=O)C(=O)N2CCCC[C@H]2C(=O)O[C@H]([C@H](C)C[C@@H]2CC[C@@H](OCCO)[C@H](OC)C2)CC(=O)[C@H](C)/C=C(\C)[C@@H](O)[C@@H](OC)C(=O)[C@H](C)C[C@H](C)/C=C/C=C/C=C/1C [everolimus] + Cn1nnc2c(C(N)=O)ncn2c1=O [temozolomide] (first compound 0.02 µM, partner dose 2 µM)",119%
10,"O=C(O)[C@@H]1[O][Sb](=[O])([O][Sb]2(=[O])[O][C@H]([C@H](O)CO)[C@H](O)[C@H](C(=O)O)[O]2)[O][C@H]([C@H](O)CO)[C@@H]1O (stereo partly drawn) [stibogluconate] + C#Cc1cccc(Nc2ncnc3cc(OCCOC)c(OCCOC)cc23)c1 [erlotinib] (first compound 2 µM, partner dose 0.8 µM)",139%
11,"C=C(c1ccc(C(=O)O)cc1)c1cc2c(cc1C)C(C)(C)CCC2(C)C [Bexarotene] + Nc1nc(F)nc2c1ncn2[C@@H]1O[C@H](CO)[C@@H](O)[C@@H]1O [fludarabine] (first compound 2 µM, partner dose 0.2 µM)",71.1%
12,"CNC(=O)c1cc(Oc2ccc(NC(=O)Nc3ccc(Cl)c(C(F)(F)F)c3)cc2)ccn1 [sorafenib] + C=CCNC1=C2C[C@@H](C)C[C@H](OC)[C@H](O)[C@@H](C)/C=C(\C)[C@H](OC(N)=O)[C@@H](OC)/C=C\C=C(/C)C(=O)NC(=CC1=O)C2=O [Tanespimycin] (first compound 0.4 µM, partner dose 0.002 µM)",157%
13,"Cn1c(=O)n(-c2ccc(C(C)(C)C#N)cc2)c2c3cc(-c4cnc5ccccc5c4)ccc3ncc21 + Nc1ncn([C@H]2C[C@H](O)[C@@H](CO)O2)c(=O)n1 [decitabine] (first compound 0.004 µM, partner dose 0.1 µM)",48.3%
14,"CC(C)C[C@H](NC(=O)[C@H](Cc1ccccc1)NC(=O)c1cnccn1)B(O)O [Bortezomib] + C=C(c1ccc(C(=O)O)cc1)c1cc2c(cc1C)C(C)(C)CCC2(C)C [Bexarotene] (first compound 0.001 µM, partner dose 2 µM)",227%
15,"CCCS(=O)(=O)Nc1ccc(F)c(C(=O)c2c[nH]c3ncc(Cl)cc23)c1F + COCC[n+]1c2c(n(Cc3cnccn3)c1C)C(=O)c1ccccc1C2=O [YM155] (first compound 0.08 µM, partner dose 0.0004 µM)",99.5%
16,"CN1CCN(c2ccc3nc(-c4c(N)c5c(F)cccc5[nH]c4=O)[nH]c3c2)CC1 [Dovitinib] + Cn1c(Nc2ccc(C(F)(F)F)cc2)nc2cc(Oc3ccnc(-c4ncc(C(F)(F)F)[nH]4)c3)ccc21 [CHIR265] (first compound 0.1 µM, partner dose 0.08 µM)",48.1%
17,"Cn1c(=O)n(-c2ccc(C(C)(C)C#N)cc2)c2c3cc(-c4cnc5ccccc5c4)ccc3ncc21 + Cn1nnc2c(C(N)=O)ncn2c1=O [temozolomide] (first compound 0.004 µM, partner dose 2 µM)",137%
18,"CC(C)C[C@H](NC(=O)[C@H](Cc1ccccc1)NC(=O)c1cnccn1)B(O)O [Bortezomib] + C[C@@H](Oc1cc(-c2cnn(C3CCNCC3)c2)cnc1N)c1c(Cl)ccc(F)c1Cl [Crizotinib] (first compound 0.001 µM, partner dose 0.2 µM)",309%
19,"O=C(O)[C@@H]1[O][Sb](=[O])([O][Sb]2(=[O])[O][C@H]([C@H](O)CO)[C@H](O)[C@H](C(=O)O)[O]2)[O][C@H]([C@H](O)CO)[C@@H]1O (stereo partly drawn) [stibogluconate] + OCc1c[nH]c2ccccc12 [Indole-3-carbinol] (first compound 2 µM, partner dose 0.8 µM)",184%
20,"C=C(c1ccc(C(=O)O)cc1)c1cc2c(cc1C)C(C)(C)CCC2(C)C [Bexarotene] + Cn1nnc2c(C(N)=O)ncn2c1=O [temozolomide] (first compound 2 µM, partner dose 2 µM)",113%
21,"Nc1ncn([C@H]2C[C@H](O)[C@@H](CO)O2)c(=O)n1 [decitabine] + C[C@]1(c2nc3c(C(N)=O)cccc3[nH]2)CCCN1 [Veliparib] (first compound 0.1 µM, partner dose 1.4 µM)",231%
22,"CN1CCN(c2ccc3nc(-c4c(N)c5c(F)cccc5[nH]c4=O)[nH]c3c2)CC1 [Dovitinib] + Nc1nc(F)nc2c1ncn2[C@@H]1O[C@H](CO)[C@@H](O)[C@@H]1O [fludarabine] (first compound 0.1 µM, partner dose 0.2 µM)",50%

# An excerpt of these results, bar-delimited.
row | Structure (SMILES) | cleaved PARP positive nuclei fraction
5 | Cn1c(=O)n(-c2ccc(C(C)(C)C#N)cc2)c2c3cc(-c4cnc5ccccc5c4)ccc3ncc21 + O=C(O)c1ccc2c(c1)nc(Nc1cccc(Cl)c1)c1ccncc12 [CX4945] (first compound 0.004 µM, partner dose 0.4 µM) | 56.5%
19 | O=C(O)[C@@H]1[O][Sb](=[O])([O][Sb]2(=[O])[O][C@H]([C@H](O)CO)[C@H](O)[C@H](C(=O)O)[O]2)[O][C@H]([C@H](O)CO)[C@@H]1O (stereo partly drawn) [stibogluconate] + OCc1c[nH]c2ccccc12 [Indole-3-carbinol] (first compound 2 µM, partner dose 0.8 µM) | 184%

# — the supplement of paper PMC4604168 (melanoma cell lines)
